Experimental findings from patent US20110124745A1, “Switchable Anionic Surfactants and Methods of Making and Using Same” (priority 2009, published 2011) are described below.

Data set [1] can be described thus: Oil in first decant solution in the absence of CO2 (surfactant ON).
A short description of data set [2]: Oil in first decant solution after exposure to CO2 (surfactant OFF); oil recapture.
Setting [3] is: 50° C. Washing, 0.5 wt % surfactant solution.
Setting [4] is: Room Temperature Washing, 0.5 wt % surfactant solution.
[5] abbreviates: 50° C. Washing, 0.1 wt % surfactant solution.

`CCCCCCCCCCCCOS(=O)(=O)[O-].[Na+]` [Sodium Dodecyl Sulfate (SDS), Sodium Dodecyl Sulfate]: the results for the “Amount of oil present in 2 mL sample of 1st decant in the absence of CO2” value (“Amount of oil present in 2 mL sample … of CO2” below) in data set [1] (setting [3]) and in data set [1] (setting [4]) were 19.7 mg and 3.4 mg, respectively.
Take Triton X-100: the “Amount of oil present in 2 mL sample … of CO2” value was 22.8 mg in data set [1] (setting [3]) and 11.5 mg in data set [1] (setting [4]).
On to `CCCCCCCCOC(=O)c1ccc(O)c([N+](=O)[O-])c1.[Na]` [Sodium octyl 4-hydroxy-3-nitrobenzoate], for which the “Amount of oil present in 2 mL sample … of CO2” value in data set [1] (setting [5]) is 13 mg; in data set [1] (setting [3]) it was 8.8 to 9.5 mg; in data set [1] (setting [4]) it was 5.2 mg. Also, the entries for the “Amount of oil present in 2 mL sample of 1st decant after exposure to CO2 and time for separation” value in data set [2] (setting [5]), in data set [2] (setting [3]) and in data set [2] (setting [4]) were 0.9 mg, 0.5 to 0.6 mg and 1.0 mg, respectively.
